Values of other authors in patent publication US8580122B2, “Hybrid chemical/mechanical method and apparatus for inactivating and removing pharmaceuticals and other contaminants from water” (priority 2004, dated 2013).
Read-outs that look alike come from different tables or passages of the source.

Details: cited from earlier work

SMILES | soil concentration after composting (full-scale, after 14 weeks, from 210 mg kg^−1) | soil concentration after composting (full-scale, in 6 weeks, from 1160 mg kg^−1) | soil concentration after composting (pilot scale, mesophilic, within 20 weeks, from 5100 mg kg^−1)
Cc1ccccc1-n1c(C)nc2ccccc2c1=O [Methaqualone] | < 100 mg/kg |  | 
CCCN(CCC)S(=O)(=O)c1ccc(C(=O)O)cc1 [Probenecid] |  | 100 mg/kg | < 10 mg/kg
